In publication PMC6052026:
These are yes or no findings as the source states them, for the method shown. Binding seen in cells or lysates may run through a third protein. These calls come from enrichment with a bait or labelling near it, and not all partners need be listed.

The chains behind the UniProt entries cited, without tags or fusion partners.
UniProt O00571: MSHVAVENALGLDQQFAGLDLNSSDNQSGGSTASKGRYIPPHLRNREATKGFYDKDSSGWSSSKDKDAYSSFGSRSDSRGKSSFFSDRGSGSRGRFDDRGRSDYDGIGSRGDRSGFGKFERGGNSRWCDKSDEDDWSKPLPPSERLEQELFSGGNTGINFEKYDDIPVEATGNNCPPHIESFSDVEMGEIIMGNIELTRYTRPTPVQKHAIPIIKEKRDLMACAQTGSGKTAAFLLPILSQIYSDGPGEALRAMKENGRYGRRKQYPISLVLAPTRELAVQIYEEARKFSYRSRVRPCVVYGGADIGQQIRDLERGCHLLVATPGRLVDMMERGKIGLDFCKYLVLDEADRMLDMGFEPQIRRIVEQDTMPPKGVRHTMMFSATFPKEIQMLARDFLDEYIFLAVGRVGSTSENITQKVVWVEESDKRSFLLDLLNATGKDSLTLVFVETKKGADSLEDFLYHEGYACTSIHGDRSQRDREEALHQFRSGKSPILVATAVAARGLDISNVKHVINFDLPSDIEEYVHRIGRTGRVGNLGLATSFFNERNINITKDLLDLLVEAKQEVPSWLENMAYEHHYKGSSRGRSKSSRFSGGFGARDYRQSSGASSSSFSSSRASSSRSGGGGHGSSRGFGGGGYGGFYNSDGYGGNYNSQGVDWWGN
UniProt P35637: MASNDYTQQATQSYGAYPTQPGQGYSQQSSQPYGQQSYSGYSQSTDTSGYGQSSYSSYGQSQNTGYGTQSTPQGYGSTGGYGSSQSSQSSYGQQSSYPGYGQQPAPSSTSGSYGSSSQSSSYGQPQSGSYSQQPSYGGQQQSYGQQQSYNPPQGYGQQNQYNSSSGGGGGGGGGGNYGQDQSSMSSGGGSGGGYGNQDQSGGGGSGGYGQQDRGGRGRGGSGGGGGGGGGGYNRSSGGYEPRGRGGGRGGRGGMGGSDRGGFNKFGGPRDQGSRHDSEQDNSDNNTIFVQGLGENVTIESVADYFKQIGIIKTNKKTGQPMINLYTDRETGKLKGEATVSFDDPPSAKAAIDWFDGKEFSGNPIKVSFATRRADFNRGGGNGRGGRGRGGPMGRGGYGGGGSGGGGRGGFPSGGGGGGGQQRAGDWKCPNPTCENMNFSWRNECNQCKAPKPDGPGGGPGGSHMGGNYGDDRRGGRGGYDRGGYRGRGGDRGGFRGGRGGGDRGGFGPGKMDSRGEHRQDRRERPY

How the values were obtained:
HA-p62 = HA-p62 (UniProt Q13501); test: affinity purification with mass spectrometry; HA-p62 immunoprecipitates from HeLa cells against IgG control, with and without arsenite, LC-MS/MS, SAINT
[1] = biological target: T1, C9ORF72 (human (endogenous in HeLa)) (UniProt Q96LT7); test: affinity purification with mass spectrometry; endogenous C9ORF72 immunoprecipitates from HeLa cells against IgG controls, three biological replicates, LC-MS/MS, SAINT (BFDR < 0.05); arsenite-treated and untreated cells
T1 sequence: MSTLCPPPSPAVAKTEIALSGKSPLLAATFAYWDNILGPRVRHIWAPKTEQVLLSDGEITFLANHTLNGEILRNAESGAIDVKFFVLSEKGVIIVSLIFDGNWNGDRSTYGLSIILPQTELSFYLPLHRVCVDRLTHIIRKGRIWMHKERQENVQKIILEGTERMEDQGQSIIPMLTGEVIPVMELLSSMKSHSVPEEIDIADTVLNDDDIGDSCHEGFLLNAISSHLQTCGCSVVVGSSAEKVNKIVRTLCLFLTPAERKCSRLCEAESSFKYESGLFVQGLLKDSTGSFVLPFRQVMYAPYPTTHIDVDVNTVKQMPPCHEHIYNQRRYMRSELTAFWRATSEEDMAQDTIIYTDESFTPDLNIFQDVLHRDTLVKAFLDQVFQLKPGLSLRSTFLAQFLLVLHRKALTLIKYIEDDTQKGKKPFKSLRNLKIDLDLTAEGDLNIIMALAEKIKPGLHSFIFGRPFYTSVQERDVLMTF

Row | Substance | binding (HA-p62) | binding [1]
1 | DDX3 (from UniProt O00571 1-662) | binds | 
2 | FUS (from UniProt P35637 1-526) |  | binds
